# The full ranking holds about 33,000 sequences; the median of “E-score (-0.5 to 0.5)” is about -0.0034, and the highest 2% start at about 0.25. The list shows a part of the results.
# Molecular target: T1, Yap3 (UniProt P38749)
# T1 sequence: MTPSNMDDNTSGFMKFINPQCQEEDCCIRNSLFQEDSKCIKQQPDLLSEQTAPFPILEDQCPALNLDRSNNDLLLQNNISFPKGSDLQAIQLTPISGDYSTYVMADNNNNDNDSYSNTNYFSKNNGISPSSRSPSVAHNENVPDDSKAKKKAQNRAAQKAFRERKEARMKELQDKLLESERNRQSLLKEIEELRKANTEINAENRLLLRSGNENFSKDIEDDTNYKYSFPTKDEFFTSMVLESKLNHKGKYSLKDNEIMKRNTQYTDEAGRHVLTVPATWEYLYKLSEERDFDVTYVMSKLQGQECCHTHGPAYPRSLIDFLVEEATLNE
# Assay: PBM E-score (8-mer binding enrichment) (E-score (-0.5 to 0.5)); higher = stronger / more preferred TF binding
# Conditions: protein concentration: 100 nM; construct: GST-full length
# Summary of the method: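 For each ungapped eight-base word taken together with its reverse complement, the Universal PBM Analysis Suite assigned an E-score. Binding data came from GST-tagged yeast transcription factors, applied at about 100-200 nM, on universal all-10-mer Agilent arrays made double-stranded by primer extension. Fluorescent anti-GST marked bound protein, and scans were normalised with masliner.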
row,Sequence,PBM E-score
1,TGGCCCCA,-0.322
2,TCCCAGGA,-0.252
3,GATAGAAA,0.187
4,CCGATCGA,-0.0505
5,AGTCACGC,-0.108
6,CTAGATAG,-0.0252
7,ATACGGAA,0.185
8,ACCTGCCT,-0.103
9,AAATCTTC,-0.0255
10,GAATTCCA,0.195
11,AGGCAGAG,-0.0771
12,AACTATTC,0.125
13,TGTGGAAA,0.202
14,ATCTTTTC,0.102
15,ACTCCACC,0.0133
16,GGTGGTCA,-0.121
17,ACATAGCC,0.0395
18,AGAGAACA,0.206
19,AGGAGCCG,-0.331
20,CCCTATTC,0.00103
21,ATTCCCGC,0.126
22,CCCGCTGA,-0.219
23,GTATCAAA,0.187
24,CCTTGGCA,-0.247
25,CCCATAGG,-0.2

# A few values from the entries so far.
# PBM E-score with TGGCCCCA reads -0.322
# PBM E-score with CCGATCGA reads -0.0505
# PBM E-score with AGTCACGC reads -0.108
# PBM E-score with CTAGATAG reads -0.0252
# PBM E-score with ATTCCCGC reads 0.126

# More results follow.

row,Sequence,PBM E-score
1,CACATTCC,0.051
2,AAGGGGCC,-0.211
3,CTGGCCAA,-0.0217
4,CGGCTATC,-0.105
5,ACTTAAAA,0.0505
6,ATGCGCGC,0.144
7,GTTATCGA,0.0176
8,ACGGTTGC,-0.0961
9,CAAGCGTA,-0.121
10,AGTTATTG,0.0615
11,CACCTCGC,-0.0346
12,ACGGGAGT,0.0215
13,AAGCCCTA,-0.149
14,CTTAACAC,0.114
15,CCCTGCAA,-0.192
16,ATTCTGTA,0.0245
17,AGAAGTAA,0.192
18,CGACACCC,-0.109
19,ACCCGCTA,-0.0496
20,CGCATCTA,0.208
21,CATGTCCC,0.0139
22,AAATTATG,0.208
23,GAGGTACC,-0.143
24,CTGCCATC,0.00415
25,AAGTGGTC,-0.0555

row,Sequence,PBM E-score
1,AGCGGATC,-0.0553
2,AGTTTGGG,0.211
3,AATGATGC,0.0306
4,AGCAAAAC,0.0939
5,AATCAGTG,-0.0532
6,TGCAATAA,0.272
7,GATCAGCC,-0.225
8,CCGTTAAG,-0.119
9,AACGTGAC,0.0815
10,CGGATTGA,0.0308
11,CGGTAGAA,-0.193
12,ATTGACGG,-0.0446
13,CGGAGGTA,-0.106
14,GGCGCGCA,0.0341
15,TCCTGCGA,-0.0222
16,ATGCTTTA,0.075
17,CTCGAGTA,0.165
18,CTTGTAAC,0.215
19,AGGTTACG,0.0423
20,AGAGGTCG,-0.14
21,AGCTTTTC,-0.0588
22,ACTCGAGA,0.0653
23,CAGGGGCC,-0.327
24,GCGGGCAC,-0.0624
25,CTATAAGA,0.182

row,Sequence,PBM E-score
1,ACCACCAG,-0.111
2,GCCCTTAC,-0.14
3,CTTCCAGC,-0.203
4,TCGAAACA,0.226
5,CTCCTCAG,-0.218
6,GTCATCGA,-0.0869
7,TCCGTCGA,0.12
8,CAGTTTAA,-0.0438
9,ACCTGGGA,0.145
10,AATACTTA,0.113
11,TACGAGGA,0.0459
12,CCGCAGTA,-0.154
13,ACATTAGT,0.0888
14,GTAAGCAA,0.27
15,ATTTCAGC,-0.118
16,CTGACATC,-0.00129
17,CTTTTGGC,0.0304
18,AATGCAAC,0.104
19,ATACTTAA,0.177
20,TAATTCGA,0.103
21,ATGTGGGG,-0.18
22,AGCTGTAG,-0.0431
23,AATGACTA,0.201
24,AAGATGAT,0.0727
25,CGACCGCA,-0.114

row,Sequence,PBM E-score
1,ACTATAAG,0.136
2,GAGGTGGC,-0.136
3,GCCCCCAA,-0.168
4,ACATTGGT,0.0185
5,GGTAGAAC,-0.107
6,AATCGACT,-0.0232
7,CTAGGAGC,-0.254
8,CAATAGCC,-0.0706
9,CAAAGAGG,0.0523
10,GATTCATA,0.116
11,GACACGAC,0.217
12,ACGTGACT,-0.132
13,CCTCGCTC,0.0543
14,TGGTTCAA,0.0744
15,CCTAGCAA,0.00301
16,CGTGCCTC,-0.141
17,TAAGGACA,0.0825
18,GCACTTAC,0.0227
19,GAACTGAA,0.153
20,AGTCCGGC,-0.0711
21,ATCATATA,0.206
22,CCACAATC,0.0271
23,CTCCTATA,-0.191
24,CTGACACC,-0.174
25,ACAATGCT,-0.0138

row,Sequence,PBM E-score
1,ACGGACCA,0.0968
2,ACATAGAG,-0.00586
3,CAGGAAGA,-0.0485
4,ACGTCTGA,0.00171
5,TGGATTAA,0.0534
6,GTGCTAAC,-0.0491
7,AATTTACC,0.145
8,CTCCCGTA,-0.0808
9,AGCCGAAA,-0.0259
10,GGCTTGCA,-0.00273
11,CGCTGACA,0.143
12,AACGGTAA,0.192
13,ACTCCCGA,-0.0714
14,GTAGGGTA,0.0833
15,GCTACTGA,-0.0544
16,CAGTGACC,-0.215
17,CCTGCAAA,-0.215
18,GAAAGAAA,0.245
19,CTAGTCAC,0.0325
20,CCGGGCTA,-0.336
21,TACAAGAA,0.223
22,GTAAGCAC,-0.00674
23,AGCAACAC,0.165
24,GGTCCACC,-0.329
25,AGTCTACG,-0.234

row,Sequence,PBM E-score
1,CAGGGTAG,-0.0458
2,AGCTATCA,0.0643
3,GTCCAGAC,-0.241
4,ACACGCGC,-0.00267
5,CTAAGGCA,-0.201
6,AATCGTAG,0.0131
7,CGTCCCAC,-0.0535
8,ATGCACCG,-0.17
9,AAAGAATT,0.132
10,CCGCACAA,0.0211
11,GAGTTGCA,-0.0745
12,CTCGAATA,-0.17
13,ATACGTGC,-0.0225
14,AACTACCC,-0.00275
15,GTTGACAA,0.211
16,CACAGGTG,-0.0921
17,CTGCCCAA,-0.122
18,AGATTTAA,-0.00108
19,AAGGTAGA,-0.0248
20,GTGGCTCA,-0.158
21,CAACCATG,0.104
22,AGCTTGAG,-0.182
